# The inconclusive results got no clear call from the source; some entries with a clear call stand among them for comparison. Potencies of inconclusive entries are doubtful fits and often do not repeat. Activity calls are given as the source filed them. The call rests on the fitted dose curve; in most records, active means well fitted cell-killing curve with a large enough effect; inconclusive means small, poorly fitted or top-dose-only effect, or effect the other way; inactive means no such curve, though single readings can be large or run the other way.
# How the values were obtained:
# [1] = Quantitative High-Throughput drug screen in 47 multiple myeloma cell lines against the NCATS MIPE library collection: MM1R_ATCC cell viability assay (AID 1918981); further: nearly all actives have a fitted effect of over 35% in size
# How it was run: (§1)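 Plated at 500 cells per well, myeloma lines received MIPE 4.0 compounds by pin tool. Following 48 h culture at 37 °C, CellTiter-Glo luminescence gave viability relative to DMSO and media-only controls.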
# [2] = Quantitative High-Throughput drug screen in 47 multiple myeloma cell lines against the NCATS MIPE library collection: LP1_DSMZ cell viability assay (AID 1918982); conditions: LP1 myeloma viability, CellTiter-Glo ATP luminescence, 48 h; viability (% of control): at 45.8 µM (top of the series); further: nearly all actives have a fitted effect of over 35% in size
# How it was run: as §1
# [3] = Quantitative High-Throughput drug screen in 47 multiple myeloma cell lines against the NCATS MIPE library collection: KMS28PE_JCRB cell viability assay (AID 1918983); further: nearly all actives have a fitted effect of over 35% in size
# How it was run: as §1
# [4] = Quantitative High-Throughput drug screen in 47 multiple myeloma cell lines against the NCATS MIPE library collection: L363_DSMZ cell viability assay (AID 1918984); conditions: L363 myeloma viability, CellTiter-Glo ATP luminescence, 48 h; viability (% of control): at 45.8 µM (top of the series); further: nearly all actives have a fitted effect of over 40% in size
# How it was run: as §1
# [5] = Quantitative High-Throughput drug screen in 47 multiple myeloma cell lines against the NCATS MIPE library collection: KMS34_JCRB cell viability assay (AID 1918985); conditions: KMS34 myeloma viability, CellTiter-Glo ATP luminescence, 48 h; viability, percent of control: at 45.8 µM (top of the series); further: nearly all actives have a fitted effect of over 40% in size;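 on viability, percent of control: 100% = DMSO-only wells and 0% = media-only wells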
# How it was run: as §1
# [6] = Quantitative High-Throughput drug screen in 47 multiple myeloma cell lines against the NCATS MIPE library collection: OCIMY7_PLB cell viability assay (AID 1918987); conditions: OCI-MY7 myeloma viability, CellTiter-Glo ATP, 48 h; viability (% of DMSO): at 45.8 µM (top of the series); further: nearly all actives have a fitted effect of over 65% in size
# How it was run: as §1
# [7] = Quantitative High-Throughput drug screen in 47 multiple myeloma cell lines against the NCATS MIPE library collection: OCIMY5_PLB cell viability assay (AID 1918988); conditions: OCI-MY5 myeloma viability, ATP luminescence, 48 h; viability, % of control: at 45.8 µM (top of the series); further: nearly all actives have a fitted effect of over 65% in size;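 on viability, % of control: 100% = DMSO-treated wells and 0% = wells with media alone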
# How it was run: as §1
# [8] = Quantitative High-Throughput drug screen in 47 multiple myeloma cell lines against the NCATS MIPE library collection: SKMM1_PLB cell viability assay (AID 1919863); conditions: SKMM1 myeloma viability, CellTiter-Glo ATP, 48 h; viability: stronger effect = lower value; further: nearly all actives have a fitted effect of over 35% in size
# How it was run: as §1
# [9] = Quantitative High-Throughput drug screen in 47 multiple myeloma cell lines against the NCATS MIPE library collection: U266_ATCC cell viability assay (AID 1919864); further: nearly all actives have a fitted effect of over 35% in size
# How it was run: as §1
# [10] = Quantitative High-Throughput drug screen in 47 multiple myeloma cell lines against the NCATS MIPE library collection: OPM1_PLB cell viability assay (AID 1918989); conditions: CellTiter-Glo, 48 h; viability (% of control): at 45.8 µM (top of the series); further: nearly all actives have a fitted effect of over 40% in size;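 on viability (% of control): 100% = DMSO-only wells and 0% = media-only wells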
# How it was run: as §1
# Potency means the concentration at half of the fitted maximal effect.
Compound,Potency [1],Potency [2],Potency [3],Potency [4],Potency [5],Potency [6],Potency [7],Potency [8],Potency [9],Potency [10],viability [8]
O=c1oc2cc(O)ccc2s1,inactive,"inconclusive: 18.7 µM [cytotoxic, partial curve, poor fit]",inactive,inactive,"inconclusive: 13.2 µM [cytotoxic, partial curve, poor fit]","inconclusive: 23.5 µM [cytotoxic, partial curve, poor fit]","inconclusive: 20.9 µM [cytotoxic, partial curve, poor fit]","inconclusive: 0.662 µM [cytotoxic, full curve, poor fit]","inconclusive: 16.6 µM [cytotoxic, partial curve, poor fit]",,
CC(=O)Oc1cc2c(s1)CCN(C(C(=O)C1CC1)c1ccccc1F)C2 (centres undefined),"inconclusive: 0.59 µM [cytotoxic, full curve]","inconclusive: 2.35 µM [cytotoxic, full curve, poor fit]",active: 2.64 µM,active: 0.935 µM,"inconclusive: 4.18 µM [cytotoxic, partial curve, poor fit]",active: 0.935 µM,active: 0.833 µM,"inconclusive: 1.48 µM [cytotoxic, full curve, poor fit]",,"inconclusive: 14.8 µM [cytotoxic, partial curve]",
CN(C1CCc2c(c3ccccc3n2CC(=O)O)C1)S(=O)(=O)c1ccc(F)cc1 (centres undefined),"inconclusive: 6.62 µM [cytotoxic, partial curve, poor fit]","inconclusive: 3.72 µM [cytotoxic, partial curve, poor fit]","inconclusive: 16.6 µM [cytotoxic, partial curve, poor fit]",active: 1.48 µM,"inconclusive: 16.6 µM [cytotoxic, partial curve, poor fit]",,active: 4.69 µM,"inconclusive: 33.2 µM [cytotoxic, partial curve, poor fit]",,"inconclusive: 0.526 µM [cytotoxic, full curve, poor fit]",
O=C1CCCC2=C1C(c1[nH]ncc1Cl)N=C(Nc1nc3ccccc3o1)N2 (centres undefined),inactive,"inconclusive: 16.6 µM [cytotoxic, partial curve, poor fit]",inactive,"inconclusive: 0.0148 µM [cytotoxic, full curve, poor fit]","inconclusive: 13.2 µM [cytotoxic, partial curve]",,,,,,
C[N+]1(C)[C@@H]2C[C@@H](OC(=O)C(O)(c3cccs3)c3cccs3)C[C@H]1[C@@H]1O[C@@H]12,inactive,inactive,inactive,inactive,"inconclusive: 0.0026 µM [rising, full curve, poor fit]","inconclusive: 16.6 µM [rising, partial curve, poor fit]",inactive,"inconclusive: 0.0935 µM [rising, full curve, poor fit]",,,
C=CC(=O)Nc1cccc(Sc2nc(Nc3ccc(N4CCN(C)CC4)cc3)ncc2Cl)c1,"inconclusive: 7.43 µM [cytotoxic, partial curve, poor fit]","inconclusive: 29.6 µM [cytotoxic, single point]","inconclusive: 7.43 µM [cytotoxic, partial curve, poor fit]","inconclusive: 2.64 µM [cytotoxic, full curve, poor fit]","inconclusive: 13.2 µM [cytotoxic, partial curve, poor fit]",active: 0.743 µM,"inconclusive: 3.72 µM [cytotoxic, partial curve, poor fit]",,"inconclusive: 37.2 µM [cytotoxic, single point]","inconclusive: 1.48 µM [cytotoxic, full curve, poor fit]",
COc1cc2c(cc1OC)CN(CCc1ccc(NC(=O)c3cc(OC)c(OC)cc3NC(=O)c3cnc4ccccc4c3)cc1)CC2,"inconclusive: 4.69 µM [cytotoxic, partial curve, poor fit]",inactive,"inconclusive: 0.296 µM [cytotoxic, full curve, poor fit]",inactive,inactive,,"inconclusive: 0.332 µM [cytotoxic, full curve, poor fit]",,,,
O=c1cc(CN2CCOCC2)occ1OCCCCCSc1ccnc2cc(C(F)(F)F)ccc12,"inconclusive: 23.5 µM [cytotoxic, partial curve, poor fit]",active: 18.7 µM,active: 2.64 µM,active: 16.6 µM,"inconclusive: 20.9 µM [cytotoxic, partial curve, poor fit]",,active: 16.6 µM,,"inconclusive: 33.2 µM [cytotoxic, single point]",,inactive: 111%
CCCCCCCCOc1ccccc1C(=O)Nc1ccc(C(=O)OCC[N+](C)(CC)CC)cc1,"inconclusive: 18.7 µM [cytotoxic, partial curve]","inconclusive: 33.2 µM [cytotoxic, single point]","inconclusive: 29.6 µM [cytotoxic, partial curve]",,,"inconclusive: 3.32 µM [cytotoxic, partial curve, poor fit]",,,,,
Cc1cn([C@@H]2O[C@H](CO)[C@@H](O)[C@H]2F)c(=O)[nH]c1=O,inactive,"inconclusive: 0.0019 µM [rising, full curve, poor fit]",,"inconclusive: 23.5 µM [cytotoxic, single point]",inactive,"inconclusive: 7.43 µM [cytotoxic, partial curve, poor fit]","inconclusive: 5.26 µM [cytotoxic, partial curve, poor fit]","inconclusive: 0.0037 µM [rising, full curve, poor fit]","inconclusive: 0.0187 µM [rising, full curve, poor fit]",,
CC(C)Oc1ccc2c(=O)c(-c3ccccc3)coc2c1,inactive,"inconclusive: 23.5 µM [cytotoxic, partial curve]",,"inconclusive: 0.0017 µM [cytotoxic, full curve, poor fit]",inactive,"inconclusive: 33.2 µM [rising, partial curve, poor fit]","inconclusive: 37.2 µM [rising, partial curve]",,inactive,inactive,inactive: 100%
NC(=O)c1ccc(-c2nc(-c3ccc4c(c3)OCCO4)c(-c3ccccn3)[nH]2)cc1,inactive,"inconclusive: 10.5 µM [cytotoxic, partial curve, poor fit]","inconclusive: 20.9 µM [cytotoxic, single point]",,"inconclusive: 4.18 µM [cytotoxic, full curve, poor fit]","inconclusive: 37.2 µM [cytotoxic, partial curve, poor fit]",,,"inconclusive: 37.2 µM [cytotoxic, single point]","inconclusive: 23.5 µM [cytotoxic, single point]",inactive: 112%
CC(=O)CC(c1ccccc1)c1c(O)c2ccccc2oc1=O (centres undefined),inactive,inactive,,"inconclusive: 0.0021 µM [rising, full curve, poor fit]",inactive,inactive,"inconclusive: 0.0023 µM [rising, full curve]","inconclusive: 0.0296 µM [rising, full curve, poor fit]","inconclusive: 0.0148 µM [rising, full curve, poor fit]",,
Cc1cc(C(C)(C)C)c(O)c(C)c1CC1=NCCN1,inactive,inactive,,inactive,"inconclusive: 10.5 µM [rising, single point]","inconclusive: 0.0418 µM [rising, full curve, poor fit]","inconclusive: 0.0019 µM [cytotoxic, full curve, poor fit]","inconclusive: 0.0264 µM [rising, full curve, poor fit]",inactive,,
Oc1ccc(C2=Cc3ccc(O)cc3OC2)cc1,"inconclusive: 5.26 µM [cytotoxic, full curve]","inconclusive: 2.09 µM [cytotoxic, full curve, poor fit]",,"inconclusive: 0.469 µM [cytotoxic, full curve]",,,,,,,
O=C(O)c1cc(=O)c2c(OCC(O)COc3cccc4oc(C(=O)O)cc(=O)c34)cccc2o1,inactive,inactive,,"inconclusive: 0.0209 µM [rising, full curve, poor fit]","inconclusive: 0.332 µM [rising, full curve, poor fit]",inactive,"inconclusive: 0.0083 µM [rising, full curve, poor fit]",,"inconclusive: 0.003 µM [rising, full curve, poor fit]","inconclusive: 1.48 µM [cytotoxic, full curve, poor fit]",inactive: 125%

# Some values from the entries so far:
# In Potency [4], `COc1cc2c(cc1OC)CN(CCc1ccc(NC(=O)c3cc(OC)c(OC)cc3NC(=O)c3cnc4ccccc4c3)cc1)CC2` is entered as inactive
# In Potency [5], `C[N+]1(C)[C@@H]2C[C@@H](OC(=O)C(O)(c3cccs3)c3cccs3)C[C@H]1[C@@H]1O[C@@H]12` is entered as inconclusive: 0.0026 µM [rising, full curve, poor fit]
